In the supplement of paper PMC10338343:
± gives the standard deviation. Only a part is listed here, and it is no random draw. The uncertainty is large for many entries.

Tested on: MILI (PIWIL2) piRISC loaded with L1MC piRNA (26 nt)
Assay: pre-steady-state target cleavage rate (min^-1); MIWI and MILI are mouse PIWI proteins and EfPiwi is from a freshwater sponge; tags in brackets are library labels; higher = faster piRNA-guided slicing of the target
Settings: guide: L1MC piRNA 5'p-UAACUAAAUACUAUGCAAGCUGUAGG
In short: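 A transcribed, DNA-blocked target RNA library (0.1 nM) and 1 nM active affinity-purified piRISC bearing one synthetic guide were incubated in HEPES–potassium acetate buffer at 33 °C for 0–8 or 0–960 min, either with or without 500 nM GTSF1 partner protein. Uncleaved targets were sequenced, normalised to depth and to weakly complementary targets, and pooled over three trials, with k3 capped at 0.0001 min^-1. The pre-steady-state cleavage rate was derived with a burst-and-steady-state fit.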

[1] = auxiliary factor: none (no GTSF1)
[2] = auxiliary factor: 500 nM mouse GTSF1

Row | Sequence | pre-steady-state target cleavage rate [1] | pre-steady-state target cleavage rate [2]
1 | UCCUGGAUGUCGAAGCAUACUAUUUAGUAA | 0.000247 ± 0.017 | –
2 | UCCUGGAUGUCGAACGUUAGUAAUUAGUUA | < 0.0001 | –
3 | UCCUGGAUGAGCUUGCAUAGUAUUUAGAUUA | 0.00184 ± 0.004 | –
4 | UCCUGGAUGUCGAACGAUAGUAAAAAGUUA | 0.00016 ± 0.032 | –
5 | UCCUGGUACAGCUUGCAAAGUAUAUAGUUA | 0.00308 ± 0.0032 | –
6 | UCCUGGAUCAGCUUGCAUAGUAUUAUAGUUA | – | 0.283 ± 0.022
7 | UCCUGGAUGUCGAACCAUAGUAUUCAGUUA | – | < 0.0001
8 | UCCUGGAUGUCGAACGUAAGUAUUAUGUUA | 0.000181 ± 0.03 | –
9 | UCCUGCUAAAGCUUGCAUAGUAUUUAGUUA | 0.00156 ± 0.005 | –
10 | UCCUGGAUGUCGAACGUUAGUAUUAUCAAA [g7:g13:cont:t1A] | 0.000236 ± 0.016 | –
11 | UCCUGGAUGUCGAAGCAUACUAUAUAGUUA | 0.000262 ± 0.018 | –
12 | UCCUGGAUGAGCUUGCAAAGUAUUUAGAAA | 0.00124 ± 0.0053 | –
13 | UCCUGCUACAGCUUGCAUAGUAUUGAGUUA | 0.00178 ± 0.0041 | –
14 | UCCUGGAUGUGCUUGCAUAUUAUUUAGUUA | 0.00294 ± 0.003 | –
15 | UCCUGGAUGUCGAACGUAAGUCUUUAGUUA | 0.000193 ± 0.019 | –
16 | UCCUGGAUGUCGAACGUAUGUUUUUAGUAA | 0.000191 ± 0.022 | –
17 | UCCUCGAUCAGCUUGCAUAGUAUUUUCAAA | 0.00151 ± 0.0034 | –
18 | UCCUGGAUCAGCUUGCAAAGAAUUUAGUUA | 0.00211 ± 0.0031 | –
19 | UCCUCCAUCAGCUUGCAUAGUAUUUACAAA | 0.001 ± 0.0048 | –
20 | UCCUGGAUGUCGAACGUAAGUAAUUAGAUA | 0.000206 ± 0.017 | –
21 | UCCUGGAUGUCGAUGCAUAGUAUUCUAGUUA | 0.00197 ± 0.0045 | –
22 | UCCUGGAUGAGCUUGCAUAGUAUUUGAGUUA | – | 0.307 ± 0.051

Row | Sequence | pre-steady-state target cleavage rate [1] | pre-steady-state target cleavage rate [2]
23 | UCCUCCUACAGGUUGCAUAGUAUUUAGAAA | 0.00153 ± 0.0036 | –
24 | UCCUGGAUGUCGAACGUAAGUAAUUAGUUA | < 0.0001 | –
25 | UCCUGGAUGUCGAACCAUAGUAUGUAGUUA | 0.000236 ± 0.022 | –
26 | UCCUGGAUGUCGUUGGAUUGUAUUUAGUUA | 0.000178 ± 0.04 | –
27 | UCCUGGAUGUCGAACGUUAGUAUUAGUUA | 0.000167 ± 0.021 | –
28 | UCCUGGAUGUCGAACGUAAGUAUUUUAGUUA | – | 0.000216 ± 0.029
29 | UCCUGGAUGUCGAACGAUAGUAAUAAGUUA | – | < 0.0001
30 | UCCUGGAUGUGCUUGCAUAGUAUAUAGUUA | 0.00284 ± 0.0035 | –
31 | UCCUGCUACAGCUUGCAAAGUAUUUAGAAA | 0.00086 ± 0.0062 | –
32 | UCCUCCUACAGCUAGCAUAGUAUUUUGUUA | 0.00245 ± 0.0025 | –
33 | UCCUGGUACAGCUUGAAUAGUAUUUAGUUA | – | 0.302 ± 0.055
34 | UCCUGGAUGUCGAACGUAAGUUUUAGUUA | – | 0.000137 ± 0.052
35 | UCCUGGUAGUGCUUGCAUAGUAUUUAGAAA | 0.00137 ± 0.0047 | –
36 | UCCUGGAUGUCGAUGCAUAGAUAUUAGUUA | 0.00025 ± 0.017 | –
37 | UCCUGGAUGUCGUUGCAUACAUAAAUCAAA [g12:g18:cont:t1A] | 0.000336 ± 0.014 | –
38 | UCCUCCUACUGCUUGCAUAGUAUUUACAAA | 0.000945 ± 0.0053 | –
39 | UCCUGGUACAGCUUGCAUAGUAUUUUGAAA | 0.00244 ± 0.0033 | –
40 | UCCUGGAUGAGCUUGCAUAGAAUUUUGUUA | 0.00114 ± 0.0066 | –
41 | UCCUGGAUGUCGAACGUAAGUAUUUAGUUG [g2:g12:cont:t1G] | 0.000273 ± 0.015 | –
42 | UCCUGGAACAGCUUGCAUAGUAUUUUGAAA | 0.0019 ± 0.0033 | –
43 | UCCUCCUAGUGCUUGCAUAGUAUUUACAAA | 0.000979 ± 0.0043 | –
44 | UCCUGGAUGUCCAUCCAUAGUAUUUAGUUA | 0.000798 ± 0.0094 | –

Record cards (already shown):
UCCUGGAUGUCGAUGCAUAGUAUUCUAGUUA in the list: pre-steady-state target cleavage rate [1]: 0.00197 ± 0.0045
UCCUGGUACAGCUUGCAAAGUAUAUAGUUA in the list: pre-steady-state target cleavage rate [1]: 0.00308 ± 0.0032
UCCUGGAUGUCGAACGUAAGUAAUUAGAUA in the list: pre-steady-state target cleavage rate [1]: 0.000206 ± 0.017

(further entries)

Row | Sequence | pre-steady-state target cleavage rate [1] | pre-steady-state target cleavage rate [2]
45 | UCCUGGAUGUCGAACGUAUGUAAUUUAGUUA | 0.000174 ± 0.026 | –
46 | UCCUGGAUGUCGAACGUAUCUUAAUAGUUA | 0.000201 ± 0.018 | –
47 | UCCUGCAAGAGCUUGCAUAGUAUUUAGUUA | – | 0.292 ± 0.025
48 | UCCUGGAACAGCUUGCAUAGUAUUUUGUUA | 0.00231 ± 0.0036 | –
49 | UCCUCCUACAGCUUGCAUAGUAUUUAGUGA | 0.0019 ± 0.0036 | –
50 | UCCUGGAUGUGCUUGCAUUGUAUUUACUUA | 0.00177 ± 0.0044 | –
51 | UCCUGGAUGUGCUUGCAUAAUAUUUAGUUA | 0.00283 ± 0.0038 | –
52 | UCCUGGAUGAGCUUGGAUAGUAUUUACAAA | 0.000214 ± 0.028 | –
53 | UCCUGCUACAGCUUGCAUACAUUUUACAAA | 0.000579 ± 0.008 | –
54 | UCCUCCUACACCUUGCAUAGUAUUUAGAAA | 0.00191 ± 0.0037 | –
55 | UCCUGGAACAGCUUGCAUAGUAAUUAGAUA | 0.00151 ± 0.0037 | –
56 | UCCUGGUACAGCUUGCAUAGUAAAUAGUUA | 0.00287 ± 0.0033 | –
57 | UCCUGGAUGUCGAACGUAUGUAUUUUCAAA [g6:g11:cont:t1A] | < 0.0001 | –
58 | UCCUGGAUGUCGAACGUAUGUAUUUCGUUA | < 0.0001 | –
59 | UCCUGCUACAGCUAGCAUAGAAUUUAGUUA | 0.00164 ± 0.0046 | –
60 | UCCUGGAUGUCGAACGUUUGUAUUAAGUUA | 0.00014 ± 0.023 | –
61 | UCCUGGUUCAGCUUGCAUAGUAUUUAGAAA | 0.00151 ± 0.0045 | –
62 | UCCUGCUACAGGUUGCAUAGUAUUUACUUA | 0.00162 ± 0.0036 | –
63 | UCCUGCUACAGCUUGCAUAGUAUUUAAGUUA | – | 0.365 ± 0.043
64 | UCCUGGAUCAGCUUGCAUAGUAAUUAGAAA | 0.00245 ± 0.0036 | –
